Test results from patent US20230168258A1 (UNIVERSIDAD DE MURCIA, published 2023).
No constants are given. Whether binding was seen depends on the method and setting. Some results given as binding are weak or reduced against the parent protein; the word gives no strength.

Target: dog oxytocin (dog)
Assay: dot-blot

B1: monoclonal antibody P26C (antibody, V domains shown)
VH: QIQLVQSGPELKKPGETVKISCKASGYIFTNYGMNWVKQAPGKNLKWMGWINTNTGEPTYAEEFKGRFAFSLETSASIAYLKINNLKNEDTATYFCSRGGLLPLSYWGQGTLVTVSA
VL: DVVMTQTPLSLPVSLGDQASISCRSSQSLVHSNGNTYLHWFLQKPGQSPKLLIYKVSNRFSGVPDRFSGSGSGTDFTLKISRVEAEDLGVYFCSQSTHFPWTFGGGTKLEIK
notes: Mouse (BALB/c) hybridoma antibody; the isotype is stated as IgGk; It was tested as hybridoma supernatant in the ELISA; also called clone P26C; monoclonal antibody of the invention
- binding: binds
